Reference: PubChem BioAssay AID445 (National Center for Advancing Translational Sciences (NCATS), 2006)
The other results are listed elsewhere or left out. The main result of the screen is listed elsewhere. These columns were measured beside it and carry no call. Compounds called inactive in the main read-out are mostly missing here. Potencies come from curve fits of mixed quality, noted in brackets.

Assay: IkB Signaling
Conditions: ABC-DLBCL IkBa-CBG/CBR dual luciferase ratio (green luciferase fused to IkBa over red control in OCI-Ly3 lymphoma cells), 4 h
In short: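 In this assay, an IκBα–CBG68 fusion accumulates when IKK-driven degradation is blocked; native CBR normalizes for cell number. OCI-Ly3 cells were treated 4 h with compound and doxycycline, then green and red light read after Chroma-Glo addition.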

[1] = measured here: control luc red channel unless noted
[2] = measured here: IkB-luc green channel
[3] = measured here: control luc red channel

Q: For `Cc1ccc(Cn2c(CO)cnc2SCc2cccc(F)c2)cc1`, which AC50 [1] is on record?
A: 39.8 µM [falling, partial curve, poor fit]

Q: For `Cc1ccc(Cl)cc1N1CCN(C(=O)c2ccc(CS(=O)(=O)c3ccc(Br)cc3)o2)CC1`, which AC50 [1] is on record?
A: 10 µM [falling, partial curve]

Q: For `Cc1c(C)n(Cc2ccccc2)c2ncnc(N)c12`, which AC50 [1] is on record?
A: 12.6 µM [falling, partial curve]

Q: Which AC50 [1] does the source give for `Cc1ccc(N(CC(=O)Nc2ccc(F)cc2F)S(=O)(=O)c2cccs2)cc1` here?
A: 10 µM [falling, partial curve]

Q: For `CCC(=O)C1=C(c2ccccc2)N(C(=O)CC)n2c(nnc2-c2ccccc2)S1`, which AC50 [1] is on record?
A: 12.6 µM [falling, partial curve]

Q: For `Cc1cccc2cc(CN(Cc3ccco3)C(c3nnnn3CCc3ccccc3)C(C)C)c(=O)[nH]c12` (configuration not stated), which AC50 [1] is on record?
A: 6.31 µM [falling, partial curve]

Q: Which AC50 [1] does the source give for `C/C(N)=C(/C#N)C(=O)CSc1nc2cc(Cl)ccc2s1` here?
A: 39.8 µM [falling, single point]

Q: With `Cc1ccc(S(=O)(=O)NCCc2nnc3ccc(SCc4ccccc4F)nn23)cc1` as the molecule, how does the AC50 [1] read?
A: 15.8 µM [falling, partial curve]

Q: With `O=C1OC(O)C(C(Cl)Cl)=C1Cl` (configuration not stated) as the molecule, how does the AC50 [2] read?
A: 1.58 µM [rising, full curve]

Q: What about the AC50 [3] of the same molecule?
A: 15.8 µM [falling, partial curve]

Q: For `COc1ccc(C)cc1NC(=O)c1cc2ccccc2o1`, which AC50 [1] is on record?
A: 0.251 µM [rising, partial curve]

Q: With `Nc1nnc(SCc2ccc(F)cc2Cl)s1` as the molecule, how does the AC50 [1] read?
A: 12.6 µM [falling, partial curve]

Q: For `CCN(CC(=O)Nc1ccc2c(c1)CCC2)Cc1nc2ccccc2c(=O)[nH]1`, which AC50 [1] is on record?
A: 31.6 µM [falling, partial curve]

Q: For `O=C(COc1ccccc1F)Nc1nnc(SCc2cc(=O)n3ccccc3n2)s1`, which AC50 [1] is on record?
A: 31.6 µM [falling, single point]

Q: Which AC50 [1] does the source give for `COc1ccc(CCNC(=O)c2ccc3c(c2)N(Cc2ccccc2Cl)C(=O)c2ccccc2S3)cc1OC` here?
A: 6.31 µM [rising, single point]

Q: Which AC50 [2] does the source give for `Cc1csc(NC(=O)CSc2nnc(Cc3cccn3C)n2CCc2ccccc2)n1` here?
A: 12.6 µM [falling, partial curve]

Q: What about the AC50 [3] of the same molecule?
A: 15.8 µM [falling, partial curve]

Q: Which AC50 [1] does the source give for `COc1ccc(-c2cccc(NS(=O)(=O)c3cc(C(F)(F)F)ccc3Cl)c2)nn1` here?
A: 31.6 µM [falling, single point]

Q: With `COc1ccc(-n2cc(-c3ccccc3)c3c(N4CCCC(C)C4)ncnc32)cc1` (configuration not stated) as the molecule, how does the AC50 [1] read?
A: 25.1 µM [falling, single point]

Q: For `CCc1nc2ccc(C(=O)NCc3ccccc3C)cc2nc1CC`, which AC50 [1] is on record?
A: 20 µM [falling, partial curve]

Q: With `COc1ccc(C(=O)NCCc2csc(-c3ccc(Cl)cc3)n2)cc1` as the molecule, how does the AC50 [1] read?
A: 31.6 µM [falling, single point]

Q: For `CCC(Oc1ccc(F)cc1)C(=O)Nc1nc2c(s1)CCCC2` (configuration not stated), which AC50 [1] is on record?
A: 31.6 µM [falling, partial curve]

Q: With `COc1ccc(N2CC(C)Cn3c2nc2c3c(=O)n(Cc3ccccc3F)c(=O)n2C)c(OC)c1` (configuration not stated) as the molecule, how does the AC50 [1] read?
A: 12.6 µM [falling, partial curve]

Q: For `C=C(C)Cn1c(N2CCN(CC)CC2)nc2c1c(=O)[nH]c(=O)n2C`, which AC50 [1] is on record?
A: 20 µM [rising, partial curve] [measured here: IkB-luc green channel]

Q: For `O=C(Nc1ccc(F)cc1)c1oc2ccccc2c1NC(=O)C1CCCCC1`, which AC50 [1] is on record?
A: 12.6 µM [falling, partial curve]

Q: For `Cc1cccc(N2CCN(C(=O)C(C)n3nc(C)n4c(cc5occc54)c3=O)CC2)c1C` (configuration not stated), which AC50 [1] is on record?
A: 25.1 µM [falling, single point]

Q: For `CCc1ccc(CNC(=O)Cn2nc(-c3ccc(Cl)cc3)ccc2=O)cc1`, which AC50 [1] is on record?
A: 10 µM [falling, partial curve]

Q: For `CCN(CC)S(=O)(=O)c1ccc(-c2csc(=Nc3cccc(C(F)(F)F)c3)n2Cc2ccc3c(c2)OCO3)cc1`, which AC50 [1] is on record?
A: 25.1 µM [falling, single point]

Q: For `O=c1c(O)c(-c2ccc(O)c(O)c2)oc2cc(O)cc(O)c12`, which AC50 [2] is on record?
A: 31.6 µM [falling, partial curve, poor fit]

Q: And the AC50 [3]?
A: 15.8 µM [falling, partial curve, poor fit]

Q: Which AC50 [1] does the source give for `Cc1ccc(S(=O)(=O)N2CCCc3cc(NS(=O)(=O)c4ccc(F)cc4)ccc32)cc1` here?
A: 25.1 µM [falling, single point]

Q: For `COc1cccc(NC(=O)Cn2c(=O)n(Cc3ccc(C(=O)NCc4ccc5c(c4)OCO5)cc3)c(=O)c3ccccc32)c1`, which AC50 [1] is on record?
A: 10 µM [falling, partial curve]

Q: Which AC50 [1] does the source give for `O=C(Cn1nnc(-c2ccccc2NC(=O)c2cccs2)n1)Nc1ccccc1` here?
A: 15.8 µM [falling, partial curve]

Q: For `CN(C)c1ccc(CNC(=O)C2CCN(S(=O)(=O)c3ccc4c(c3)oc(=O)n4C)CC2)cc1`, which AC50 [1] is on record?
A: 39.8 µM [falling, single point]

Q: With `O=C(Nc1nccs1)c1ccc(Cl)c(S(=O)(=O)N2CCOCC2)c1` as the molecule, how does the AC50 [1] read?
A: 25.1 µM [falling, single point]

Q: For `COc1ccccc1C(=O)N(c1ccc(C)cc1)S(=O)(=O)c1ccc(Cl)cc1`, which AC50 [1] is on record?
A: 3.16 µM [falling, full curve]

Q: Which AC50 [1] does the source give for `Cc1ccc(CNc2nc3ccccc3n3cnnc23)cc1` here?
A: 1 µM [rising, full curve]

Q: With `Cc1csc2nc(COC(=O)c3ccc(NC(=O)C(C)Oc4ccccc4)cc3)cc(=O)n12` (configuration not stated) as the molecule, how does the AC50 [1] read?
A: 31.6 µM [falling, single point]

Q: With `COc1ccc(NC(=O)c2cnc(N3CCCC3)nc2)cc1OC` as the molecule, how does the AC50 [1] read?
A: 39.8 µM [falling, single point]

Q: Which AC50 [1] does the source give for `CCCC1=Nc2cc(C(=O)N3CCC(C(=O)OCC)CC3)ccc2Sc2ccccc21` here?
A: 25.1 µM [falling, partial curve]

Q: Which AC50 [1] does the source give for `O=S(=O)(Nc1ccc2c(c1)OCCO2)c1ccc(Br)s1` here?
A: 15.8 µM [falling, partial curve]

Q: With `Cc1cc(C)n(CC(O)COc2ccccc2C(=O)Nc2ccccc2)n1` (configuration not stated) as the molecule, how does the AC50 [1] read?
A: 15.8 µM [falling, partial curve]
